The results in this text go back to patent US20240043837.

For at least one entry, the source does not settle the construct or the ends of the probe.

This data set concerns the target Transferrin receptor extracellular domain (TfR, hTfR1) (UniProt P02786). Nature of the data set: SELEX. Particulars: 2'-F U and 2'-F C; clone from pool after 12 rounds; 30 mM Tris-HCl, 150 mM NaCl, 1.5 mM MgCl2, 2 mM DTT, 1% BSA, room temperature; no affinity given; purified recombinant protein.

Take “GGGAGACAAGAAUAAACGCUCAAUGCGUUCACGUUUAUUCACAUUUUUGAAUUGAGCAUGAGCUUCGACAGGAGGCUCACAACAGGC [TR14]”: the selection result is “selected”.
